No constants are given. Whether binding was seen depends on the method and setting. Some entries that bind do so weakly or less than the wild type.
Target: His.Xa.Abeta1-28.GS.p38 fusion protein
Assay: size exclusion chromatography of a 1:2 mixture, SDS-PAGE of the peaks

B1: 60A10-27GS-42D4-Alb (designed binder, not shown: large carriers)
chain: EVQLVESGGGLVQAGGSLRLSCAASGRTFNNYNMGWFRQAPGKEREFVAAVSRSGVSTYYADSVKGRFTISRDNAKNAVYLQMNSLKPEDTAIYYCGAAYRGTAINVRRSYDSWGQGTQVTVSSGGGSGGGGSGGGGSGGGGSGGGGSGGGEVQLVESGGGLVLAGGSLRLSCVHSGPTFSTDTMGWFRQAPGKEREFVAAVTWNSGRTNYADSVKGRFTVSRDNTRNAAYLQMSGLKDEDTAVYYCTAHRLVVGGTSVGDWRYWGQGTQVTVSS
For B1, which binding is on record?
The binding was “binds”.
